Results reported in patent US20260183350A1, “ANTIBIOTIC-RESISTANT BACTERIA” (priority 2022, published 2026).

Legend:
faecal microbiota [1] = test: Faecal batch culture with antibiotics promoting CRE colonisation: 1H-NMR of nutrients and metabolites; assay type: cell-based, human; conditions: 11 healthy donors, antibiotic at faecal concentration, 24 hours anaerobic
Experimental: The inventors performed faecal culture experiments to measure the effects of eight broad-spectrum antibiotics on the faecal microbiota collected from 11 healthy human donors. Faecal culture experiments were performed under anaerobic conditions using a complex gut growth medium that was designed to mimic the nutrients found in the human distal gut (McDonald, J. A. et al. Evaluation of microbial community reproducibility, stability and composition in a human distal gut chemostat model. J. Microbiol. Methods 95, 167-174 (2013)). […] Moon, Y. S., Chung, K. C. & Gill, M. A. Pharmacokinetics of meropenem in animals, healthy volunteers, and patients. Clin Infect Dis 24, S249-S255 (1997). Kager, L., Brismar, B., Malmborg, A. S. & Nord, C. […] Samples were analysed by ^1H-NMR spectroscopy (for nutrient and metabolite profiling) and […] rRNA gene sequencing with 16S rRNA gene qPCR (for bacterial composition and biomass) (McDonald, J. A. K. et a/. Inhibiting Growth of Clostridioides difficile by Restoring Valerate, Produced by the Intestinal Microbiota. Gastroenterology 155, 1495-1507 (2018)).
Supernatants were prepared from faeces by vortexing 300 mg of faeces in 900 μl of HPLC-grade water for 10 minutes at 3000 rpm followed by centrifugation at 17,000×g for 10 minutes at 4° C. […] Supernatants were frozen at −80° C. until they were ready for analysis. […]

faecal microbiota [2] = test: Faecal batch culture with antibiotics promoting CRE colonisation: 16S rRNA gene sequencing and qPCR; assay type: cell-based, human; conditions: 11 healthy donors, antibiotic at faecal concentration, 24 hours anaerobic
Experimental: The inventors performed faecal culture experiments to measure the effects of eight broad-spectrum antibiotics on the faecal microbiota collected from 11 healthy human donors. Faecal culture experiments were performed under anaerobic conditions using a complex gut growth medium that was designed to mimic the nutrients found in the human distal gut (McDonald, J. A. et al. Evaluation of microbial community reproducibility, stability and composition in a human distal gut chemostat model. J. Microbiol. Methods 95, 167-174 (2013)). […] Moon, Y. S., Chung, K. C. & Gill, M. A. Pharmacokinetics of meropenem in animals, healthy volunteers, and patients. Clin Infect Dis 24, S249-S255 (1997). Kager, L., Brismar, B., Malmborg, A. S. & Nord, C. E. Imipenem concentrations in colorectal surgery and impact on the colonic microflora. Antimicrob Agents Chemother 33, 204-8 (1989). Pletz, M. et al. Ertapenem pharmacokinetics and impact on intestinal microflora, in comparison to those of ceftriaxone, after multiple dosing in male and female volunteers. Antimicrob Agents Chemother 48, 3765-72 (2004). Nord, C. E., Brismar, B., Kasholm-Tengve, B. & Tunevall, G. Effect of piperacillin/tazobactam treatment on human bowel microflora. J Antimicrob Chemother 31, 61-5 (1993). […] Antimicrob Agents Chemother 63, 2244 (2019). […]

SMILES: O=C(O)c1cn(C2CC2)c2cc(N3CCNCC3)c(F)cc2c1=O [CIP, ciprofloxacin]
- Change in butyrate concentration in faecal cultures (faecal microbiota [1]): decreased
- Change in abundance of bacterial families relative to antibiotic-naive faecal cultures (faecal microbiota [2]): decreased the abundance of Bifidobacteriaceae, Barnesiellaceae, and Sutterellaceae
